Laboratory results: the supplement of paper PMC10849652
The other results are listed elsewhere or left out.

By UniProt entry, the sequences of proteins in these tests, tags left out. Where a name states a change or a piece, a line headed by the entry shows the natural chain unless it says otherwise.
UniProt Q569H4: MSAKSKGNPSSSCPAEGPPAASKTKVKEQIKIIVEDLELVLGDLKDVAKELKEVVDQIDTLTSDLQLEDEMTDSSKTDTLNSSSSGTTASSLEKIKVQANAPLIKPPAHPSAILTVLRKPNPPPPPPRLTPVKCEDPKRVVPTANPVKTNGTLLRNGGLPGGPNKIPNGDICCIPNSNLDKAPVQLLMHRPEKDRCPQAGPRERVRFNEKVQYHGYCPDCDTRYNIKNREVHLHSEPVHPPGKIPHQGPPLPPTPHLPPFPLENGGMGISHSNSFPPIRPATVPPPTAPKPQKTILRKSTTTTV
UniProt P07478, whole entry, looked up: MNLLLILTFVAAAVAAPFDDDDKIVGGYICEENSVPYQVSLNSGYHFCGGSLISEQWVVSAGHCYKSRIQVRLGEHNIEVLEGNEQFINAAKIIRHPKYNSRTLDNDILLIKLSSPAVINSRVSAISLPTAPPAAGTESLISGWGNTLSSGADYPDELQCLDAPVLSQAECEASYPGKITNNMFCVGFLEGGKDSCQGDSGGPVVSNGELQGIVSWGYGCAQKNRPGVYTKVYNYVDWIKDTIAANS
UniProt Q05397, whole entry, looked up: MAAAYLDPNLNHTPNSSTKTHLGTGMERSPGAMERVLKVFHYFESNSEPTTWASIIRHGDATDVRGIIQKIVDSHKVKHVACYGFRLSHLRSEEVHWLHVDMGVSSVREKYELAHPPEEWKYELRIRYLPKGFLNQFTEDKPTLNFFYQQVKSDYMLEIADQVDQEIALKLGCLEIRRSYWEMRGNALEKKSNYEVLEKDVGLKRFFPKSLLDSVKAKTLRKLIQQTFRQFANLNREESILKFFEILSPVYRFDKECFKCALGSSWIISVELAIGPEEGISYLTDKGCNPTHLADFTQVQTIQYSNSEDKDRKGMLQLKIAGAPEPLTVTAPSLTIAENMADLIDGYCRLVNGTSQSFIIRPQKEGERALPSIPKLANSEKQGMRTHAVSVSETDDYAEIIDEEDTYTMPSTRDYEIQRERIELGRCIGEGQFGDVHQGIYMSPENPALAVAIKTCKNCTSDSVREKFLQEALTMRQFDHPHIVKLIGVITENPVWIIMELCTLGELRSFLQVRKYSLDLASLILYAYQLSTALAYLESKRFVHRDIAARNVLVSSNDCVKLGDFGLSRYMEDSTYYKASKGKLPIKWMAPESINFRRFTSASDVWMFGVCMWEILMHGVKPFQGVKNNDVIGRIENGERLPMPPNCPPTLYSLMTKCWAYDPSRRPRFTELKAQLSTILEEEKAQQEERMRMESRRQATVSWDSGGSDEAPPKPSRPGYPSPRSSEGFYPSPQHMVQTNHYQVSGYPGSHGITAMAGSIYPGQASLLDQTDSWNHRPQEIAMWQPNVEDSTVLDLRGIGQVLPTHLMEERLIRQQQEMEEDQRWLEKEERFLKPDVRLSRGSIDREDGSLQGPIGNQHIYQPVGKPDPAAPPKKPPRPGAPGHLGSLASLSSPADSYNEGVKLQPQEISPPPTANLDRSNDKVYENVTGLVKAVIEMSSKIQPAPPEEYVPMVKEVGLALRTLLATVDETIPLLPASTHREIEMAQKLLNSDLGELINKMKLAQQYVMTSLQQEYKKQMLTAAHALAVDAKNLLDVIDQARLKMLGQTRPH
UniProt P43115: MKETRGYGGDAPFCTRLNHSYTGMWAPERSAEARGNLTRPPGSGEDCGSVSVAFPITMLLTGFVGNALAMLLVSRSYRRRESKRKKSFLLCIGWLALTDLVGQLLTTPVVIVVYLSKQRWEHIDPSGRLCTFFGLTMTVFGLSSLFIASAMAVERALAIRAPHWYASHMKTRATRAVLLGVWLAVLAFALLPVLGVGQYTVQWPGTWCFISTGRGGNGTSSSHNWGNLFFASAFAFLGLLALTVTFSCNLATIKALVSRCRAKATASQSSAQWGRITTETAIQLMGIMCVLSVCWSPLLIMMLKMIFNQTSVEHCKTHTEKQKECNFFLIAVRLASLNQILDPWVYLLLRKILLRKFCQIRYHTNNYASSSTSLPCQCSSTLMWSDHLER

Columns and labels:
Assay in all cases: log2 fold change, soluble protein after heating vs DMSO (PISA); higher = thermal stabilisation; K562 lysate, 10 uM; active = over 0.2 and 3.5 SD of the protein, either way, in both replicates (recomputed)
[1] = compound: Cn1cc(CNCC2CCN(c3ncc(C(=O)NO)cn3)CC2)c2ccccc21 [quisinostat]
How it was run: (§1)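 Quantification was by TMTpro 16plex LC-MS/MS with equalised channel sums, applied to the supernatant after 21,000xg for 90 min. Samples were crude K562 extract at 1 mg/mL protein in PBS pH 7.4 with 1 mM MgCl2, treated with 10 μM compound for 30 min, heated for 3 min across 48°C-58°C, pooled and brought to 0.5% NP-40 at 4°C. Values are log-two fold changes in thermal stability relative to solvent controls, from duplicates.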

[2] = compound: NC(=O)Nc1cc(-c2cccc(F)c2)sc1C(=O)N[C@H]1CCCNC1
How it was run: as §1

[3] = compound: Cc1nc(Nc2ncc(C(=O)Nc3c(C)cccc3Cl)s2)cc(N2CCN(CCO)CC2)n1 [dasatinib]
How it was run: as §1

[4] = compound: Cn1cc(-c2ccc3c(c2)CCN3C(=O)Cc2cccc(C(F)(F)F)c2)c2c(N)ncnc21
How it was run: as §1

[5] = compound: NC(=O)c1cnc(N[C@@H]2CCCC[C@@H]2N)nc1Nc1cccc(-n2nccn2)c1
How it was run: as §1

[6] = compound: NC1(c2ccc(-c3nc4ccn5c(=O)[nH]nc5c4cc3-c3ccccc3)cc2)CCC1
How it was run: as §1

Measured: log2 fold change

PRR16 (UniProt Q569H4)
inactive: [1] -0.011 | [2] 0.008

PRSS2 (UniProt P07478)
inactive: [3] -0.055 | [4] 0.305 | [5] 0.263

PTK2 isoform 2 (UniProt Q05397)
inactive: [3] 0.014 | [4] 0.102 | [5] 0.034 | [6] -0.168

PTGER3 isoform 2 (UniProt P43115)
inactive: [1] 0.028 | [2] 0.191 | [5] -0.035
